# Source: PMC7862700
# The chains behind the UniProt entries cited, without tags or fusion partners. Where a name states a change or a piece, a line headed by the entry shows the natural chain unless it says otherwise.
# UniProt P32519: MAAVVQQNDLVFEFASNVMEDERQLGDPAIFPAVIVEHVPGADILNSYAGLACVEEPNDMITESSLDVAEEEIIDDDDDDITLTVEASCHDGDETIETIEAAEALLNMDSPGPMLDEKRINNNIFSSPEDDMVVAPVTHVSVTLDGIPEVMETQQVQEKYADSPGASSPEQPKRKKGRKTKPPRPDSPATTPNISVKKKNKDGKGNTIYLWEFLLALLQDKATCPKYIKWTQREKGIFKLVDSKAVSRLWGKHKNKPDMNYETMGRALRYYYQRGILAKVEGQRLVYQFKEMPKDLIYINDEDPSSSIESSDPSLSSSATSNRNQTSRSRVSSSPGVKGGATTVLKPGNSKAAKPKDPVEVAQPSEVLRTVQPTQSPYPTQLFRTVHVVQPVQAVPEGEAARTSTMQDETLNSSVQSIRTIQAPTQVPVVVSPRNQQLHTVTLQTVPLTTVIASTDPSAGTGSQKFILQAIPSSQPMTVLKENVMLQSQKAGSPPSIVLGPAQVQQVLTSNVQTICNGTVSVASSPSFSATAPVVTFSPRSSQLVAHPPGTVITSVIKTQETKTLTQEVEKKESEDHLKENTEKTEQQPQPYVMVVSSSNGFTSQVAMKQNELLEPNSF
# UniProt P50549: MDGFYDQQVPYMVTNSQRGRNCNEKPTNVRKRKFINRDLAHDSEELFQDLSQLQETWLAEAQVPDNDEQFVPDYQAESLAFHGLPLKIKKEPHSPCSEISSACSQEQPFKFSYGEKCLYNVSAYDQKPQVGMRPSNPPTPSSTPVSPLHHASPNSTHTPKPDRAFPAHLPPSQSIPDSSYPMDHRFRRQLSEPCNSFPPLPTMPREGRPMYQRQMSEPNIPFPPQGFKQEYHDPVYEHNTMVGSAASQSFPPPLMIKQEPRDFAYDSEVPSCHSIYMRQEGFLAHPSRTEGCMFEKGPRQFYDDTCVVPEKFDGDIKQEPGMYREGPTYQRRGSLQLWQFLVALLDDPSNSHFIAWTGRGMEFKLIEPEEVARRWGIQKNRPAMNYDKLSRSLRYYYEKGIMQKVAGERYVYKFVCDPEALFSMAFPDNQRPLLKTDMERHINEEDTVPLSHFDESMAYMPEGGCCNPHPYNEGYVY
# This is a selection; strong and weak results do not stand in their true shares. For part of these data: At the low end of the ranking the order means little. Some of the results follow. For part of these data: The exact form of the protein is not confirmed.
# Experiments:
# Experiment in all cases: DAPPL (digital affinity profiling via proximity ligation, sequencing)
# Conditions in all cases: 10 mM Tris-HCl pH 7.5, 50 mM NaCl, 1 mM DTT, 4% glycerol, room temperature, 30 min; GST-TFs on glutathione beads, 16-mer random dsDNA library, 0.1% …; high values mean tight binding; double strand, one strand shown; scale: fold enrichment (6-mer frequency, TF over GST control)
# [1] = target: T1, ERG (UniProt P11308)
# T1 sequence: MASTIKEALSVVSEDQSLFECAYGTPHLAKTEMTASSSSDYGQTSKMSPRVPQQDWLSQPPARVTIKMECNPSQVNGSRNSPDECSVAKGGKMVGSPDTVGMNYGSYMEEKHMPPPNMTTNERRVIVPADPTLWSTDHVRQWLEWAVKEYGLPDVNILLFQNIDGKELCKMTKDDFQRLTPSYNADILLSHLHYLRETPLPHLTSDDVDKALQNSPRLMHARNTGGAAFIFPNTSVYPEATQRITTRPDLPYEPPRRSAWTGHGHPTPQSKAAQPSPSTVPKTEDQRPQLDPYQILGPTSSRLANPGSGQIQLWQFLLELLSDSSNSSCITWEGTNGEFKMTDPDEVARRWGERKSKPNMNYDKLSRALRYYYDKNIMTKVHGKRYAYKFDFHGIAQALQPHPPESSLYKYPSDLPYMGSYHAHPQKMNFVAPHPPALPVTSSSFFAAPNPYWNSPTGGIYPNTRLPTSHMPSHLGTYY
# [2] = target: ELF1 (UniProt P32519)
# [3] = target: T2, ELK4 (UniProt P28324-2)
# T2 sequence: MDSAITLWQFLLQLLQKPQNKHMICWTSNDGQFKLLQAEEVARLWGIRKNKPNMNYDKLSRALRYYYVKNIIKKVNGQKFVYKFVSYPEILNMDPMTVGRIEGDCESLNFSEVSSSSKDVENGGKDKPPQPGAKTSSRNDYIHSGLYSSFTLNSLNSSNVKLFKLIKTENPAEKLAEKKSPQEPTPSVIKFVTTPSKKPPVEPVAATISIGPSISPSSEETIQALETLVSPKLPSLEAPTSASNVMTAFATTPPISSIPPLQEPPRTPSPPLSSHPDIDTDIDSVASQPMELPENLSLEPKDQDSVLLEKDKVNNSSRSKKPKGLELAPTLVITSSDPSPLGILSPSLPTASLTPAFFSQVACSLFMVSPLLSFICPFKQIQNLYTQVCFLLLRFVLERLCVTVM
# [4] = target: T3, ETV4 (UniProt P43268)
# T3 sequence: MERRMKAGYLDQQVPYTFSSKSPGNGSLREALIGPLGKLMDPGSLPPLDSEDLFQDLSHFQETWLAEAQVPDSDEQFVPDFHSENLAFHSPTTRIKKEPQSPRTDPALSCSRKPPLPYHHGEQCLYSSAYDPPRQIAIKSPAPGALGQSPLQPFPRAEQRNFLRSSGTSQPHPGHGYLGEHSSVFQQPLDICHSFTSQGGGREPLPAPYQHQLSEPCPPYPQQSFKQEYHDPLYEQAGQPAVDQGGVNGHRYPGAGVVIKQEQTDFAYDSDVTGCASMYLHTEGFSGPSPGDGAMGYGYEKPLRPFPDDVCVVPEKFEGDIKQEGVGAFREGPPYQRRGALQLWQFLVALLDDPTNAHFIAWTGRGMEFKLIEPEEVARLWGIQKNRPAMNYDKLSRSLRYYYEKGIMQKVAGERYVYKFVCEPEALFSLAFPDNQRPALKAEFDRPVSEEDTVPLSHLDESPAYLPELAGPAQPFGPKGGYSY
# [5] = target: ETV1 (UniProt P50549)
# [6] = target: T4, ERF (UniProt P50548)
# T4 sequence: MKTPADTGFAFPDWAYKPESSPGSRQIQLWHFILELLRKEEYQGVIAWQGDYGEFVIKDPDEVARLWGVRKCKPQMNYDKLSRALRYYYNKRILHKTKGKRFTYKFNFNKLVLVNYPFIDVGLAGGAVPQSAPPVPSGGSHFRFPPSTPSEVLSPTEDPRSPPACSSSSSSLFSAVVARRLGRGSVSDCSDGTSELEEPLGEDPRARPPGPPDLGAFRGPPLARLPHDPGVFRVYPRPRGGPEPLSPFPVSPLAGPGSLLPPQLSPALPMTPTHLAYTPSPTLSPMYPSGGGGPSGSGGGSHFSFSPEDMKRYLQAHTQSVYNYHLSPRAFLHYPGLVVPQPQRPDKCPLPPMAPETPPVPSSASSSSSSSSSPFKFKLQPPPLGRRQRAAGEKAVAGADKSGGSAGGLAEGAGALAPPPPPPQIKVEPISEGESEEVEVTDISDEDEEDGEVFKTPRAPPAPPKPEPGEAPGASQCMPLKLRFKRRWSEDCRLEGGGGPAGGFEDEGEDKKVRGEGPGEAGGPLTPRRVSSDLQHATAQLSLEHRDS
sequence,measurement,setting,value
GCAACA,binding signal,[1],0.941
same,binding signal,[2],0.998
same,binding signal,[3],1.08
same,binding signal,[4],0.96
same,binding signal,[5],0.903
GTTCGT,binding signal,[1],0.936
same,binding signal,[2],0.975
same,binding signal,[3],0.865
same,binding signal,[4],0.977
same,binding signal,[5],0.896
AGAAAA,binding signal,[1],1.02
same,binding signal,[3],0.969
same,binding signal,[4],0.971
same,binding signal,[6],0.999
ATGCGC,binding signal,[1],1.18
same,binding signal,[3],1.28
same,binding signal,[4],1.08
same,binding signal,[6],1.24
CACGGC,binding signal,[1],0.971
same,binding signal,[3],0.957
same,binding signal,[4],1.02
same,binding signal,[6],0.968
ACGAAA,binding signal,[1],1.14
same,binding signal,[3],1.24
same,binding signal,[4],1.13
same,binding signal,[6],1.34
TTCGAC,binding signal,[1],1.43
same,binding signal,[3],1.43
same,binding signal,[4],1.47
same,binding signal,[6],1.43
CAGCAC,binding signal,[1],0.935
same,binding signal,[2],1.02
same,binding signal,[3],0.839
same,binding signal,[4],0.994
same,binding signal,[5],0.987
GCGGCT,binding signal,[1],0.862
same,binding signal,[2],1
same,binding signal,[3],0.872
same,binding signal,[4],0.957
same,binding signal,[5],0.974
TAAGCG,binding signal,[1],1.02
same,binding signal,[3],0.916
same,binding signal,[4],0.95
same,binding signal,[6],0.991
TCATAG,binding signal,[1],0.9
same,binding signal,[2],0.98
same,binding signal,[3],0.985
same,binding signal,[4],0.952
same,binding signal,[5],0.978
TTTAGA,binding signal,[1],0.901
same,binding signal,[2],0.977
same,binding signal,[3],0.995
same,binding signal,[4],0.947
same,binding signal,[5],0.947
CAGACT,binding signal,[1],0.985
same,binding signal,[3],0.93
same,binding signal,[4],1.05
same,binding signal,[6],0.94
AGTGTC,binding signal,[1],1.08
same,binding signal,[3],0.954
same,binding signal,[4],0.976
same,binding signal,[6],0.996
TGATTT,binding signal,[1],1.35
same,binding signal,[3],1.2
same,binding signal,[4],1.16
same,binding signal,[6],1.17
ACTCGG,binding signal,[1],0.98
same,binding signal,[3],0.998
same,binding signal,[4],1
same,binding signal,[6],1.04
TCATAC,binding signal,[1],1.14
same,binding signal,[3],1.07
same,binding signal,[4],1.09
same,binding signal,[6],1.2
AGCATC,binding signal,[1],1.04
same,binding signal,[3],0.963
same,binding signal,[4],1.06
same,binding signal,[6],0.971
CACGTT,binding signal,[1],1.28
same,binding signal,[3],1.29
same,binding signal,[4],1.26
same,binding signal,[6],1.36
ACCGTT,binding signal,[1],0.99
same,binding signal,[2],0.965
same,binding signal,[3],0.809
same,binding signal,[4],0.944
same,binding signal,[5],0.865
GCTCAC,binding signal,[1],1.51
same,binding signal,[3],1.53
same,binding signal,[4],1.61
same,binding signal,[6],1.58
ATAGCG,binding signal,[1],0.947
same,binding signal,[2],0.906
same,binding signal,[3],0.857
same,binding signal,[4],0.925
same,binding signal,[5],0.987
AACGCG,binding signal,[1],0.978
same,binding signal,[3],0.963
same,binding signal,[4],0.968
same,binding signal,[6],0.896
GGCGTT,binding signal,[1],0.955
same,binding signal,[2],0.91
same,binding signal,[3],0.896
same,binding signal,[4],0.923
same,binding signal,[5],0.992
ACTTAG,binding signal,[1],1.09
same,binding signal,[3],0.999
same,binding signal,[4],1.11
same,binding signal,[6],1.17
CAAAGA,binding signal,[1],0.974
same,binding signal,[3],0.973
same,binding signal,[4],0.925
same,binding signal,[6],0.871
AGTTAC,binding signal,[1],1
same,binding signal,[2],0.917
same,binding signal,[3],0.942
same,binding signal,[4],1.03
same,binding signal,[5],0.982
CTATGT,binding signal,[1],0.989
same,binding signal,[3],1.15
same,binding signal,[4],1.17
same,binding signal,[6],1.08
TAGGGT,binding signal,[1],1.03
same,binding signal,[2],1.16
same,binding signal,[3],1.22
same,binding signal,[4],1.07
same,binding signal,[5],1.01
TGCCGG,binding signal,[1],1.13
same,binding signal,[3],0.987
same,binding signal,[4],1.08
same,binding signal,[6],0.973
GAAAGG,binding signal,[1],0.891
same,binding signal,[2],0.922
same,binding signal,[3],0.777
same,binding signal,[4],0.957
same,binding signal,[5],0.972
GTTGTA,binding signal,[1],0.976
same,binding signal,[3],0.994
same,binding signal,[4],1.09
same,binding signal,[6],0.87
CTGCGG,binding signal,[1],1.1
same,binding signal,[3],0.959
same,binding signal,[4],1.07
same,binding signal,[6],1.04
ACGGTT,binding signal,[1],0.987
same,binding signal,[3],0.981
same,binding signal,[4],0.971
same,binding signal,[6],0.933
AGAAAC,binding signal,[1],0.924
same,binding signal,[2],0.989
same,binding signal,[3],0.967
same,binding signal,[4],0.915
same,binding signal,[5],0.981
TGCGAA,binding signal,[1],1.16
same,binding signal,[3],1.19
same,binding signal,[4],1.18
same,binding signal,[6],1.07
CCACCA,binding signal,[1],0.873
same,binding signal,[3],1.14
same,binding signal,[4],1.07
same,binding signal,[6],0.991
CATAAG,binding signal,[1],0.993
same,binding signal,[2],0.91
same,binding signal,[3],0.95
same,binding signal,[4],0.975
same,binding signal,[5],0.961
GACGAC,binding signal,[1],0.939
same,binding signal,[2],0.915
same,binding signal,[3],1
same,binding signal,[4],1.06
same,binding signal,[6],0.944
AGTTTA,binding signal,[1],0.955
same,binding signal,[2],0.983
same,binding signal,[3],0.946
same,binding signal,[4],0.956
ATCACA,binding signal,[3],1.02
same,binding signal,[4],1.07
same,binding signal,[5],1.04
AGGTAA,binding signal,[1],0.92
same,binding signal,[2],0.953
same,binding signal,[3],0.992
same,binding signal,[4],0.928
same,binding signal,[6],1.06
TCGTCA,binding signal,[1],0.992
same,binding signal,[2],1.04
same,binding signal,[3],0.992
same,binding signal,[4],1.05
ATGAGG,binding signal,[1],0.951
same,binding signal,[2],0.95
same,binding signal,[3],0.905
same,binding signal,[4],0.878
same,binding signal,[6],0.984
GGGTAT,binding signal,[1],0.972
same,binding signal,[2],0.938
same,binding signal,[3],1.1
same,binding signal,[4],0.904
same,binding signal,[6],0.908
ACCTGT,binding signal,[1],0.988
same,binding signal,[2],0.967
same,binding signal,[3],0.971
same,binding signal,[4],1.08
same,binding signal,[6],1.08
CAGCTC,binding signal,[1],0.997
same,binding signal,[2],1.06
same,binding signal,[3],0.995
same,binding signal,[4],1.05
TCCCAT,binding signal,[1],1.45
same,binding signal,[2],1.44
same,binding signal,[3],1.27
same,binding signal,[4],1.36
GGACTT,binding signal,[3],1.08
same,binding signal,[4],1.17
same,binding signal,[5],1.22
GCCGAT,binding signal,[1],1.03
same,binding signal,[2],1.03
same,binding signal,[3],1.13
same,binding signal,[4],1.09
GATCAA,binding signal,[1],0.996
same,binding signal,[2],1.04
same,binding signal,[3],0.928
same,binding signal,[4],0.969
TTCAAT,binding signal,[1],1.41
same,binding signal,[2],1.37
same,binding signal,[3],1.42
same,binding signal,[4],1.32
GTCAAA,binding signal,[1],0.997
same,binding signal,[2],0.946
same,binding signal,[3],0.987
same,binding signal,[4],0.938
same,binding signal,[6],0.887
TGTACA,binding signal,[1],1.24
same,binding signal,[2],1.23
same,binding signal,[3],1.17
same,binding signal,[4],1.28
GCACAC,binding signal,[1],0.965
same,binding signal,[2],1.02
same,binding signal,[3],0.882
same,binding signal,[4],1.02
AGCTCG,binding signal,[1],0.965
same,binding signal,[2],0.974
same,binding signal,[3],0.983
same,binding signal,[4],0.933
ACCTTC,binding signal,[1],2.03
same,binding signal,[2],1.92
same,binding signal,[3],2.06
same,binding signal,[4],1.95
CTCCCA,binding signal,[1],1.38
same,binding signal,[2],1.41
same,binding signal,[3],1.44
same,binding signal,[4],1.49
TGCGAC,binding signal,[1],1.26
same,binding signal,[2],1.22
same,binding signal,[3],1.25
same,binding signal,[4],1.18
same,binding signal,[6],1.22

# 3 entries from above, reformatted.
sequence | measurement | setting | value
ACGAAA | binding signal | [3] | 1.24
TCATAC | binding signal | [6] | 1.2
ATAGCG | binding signal | [1] | 0.947

# Shown with bars between the fields: part of the list above
sequence | measurement | setting | value
TTTAGA | binding signal | [3] | 0.995
GAAAGG | binding signal | [4] | 0.957
TTCAAT | binding signal | [1] | 1.41
same | binding signal | [3] | 1.42

# Fetched one by one from the entries so far (3):
sequence,measurement,setting,value
AGTTTA,binding signal,[2],0.983
TGCGAC,binding signal,[1],1.26
GGACTT,binding signal,[5],1.22
